Test results as given in the supplement of paper PMC9233669.
Variants at the background level are over-represented here.

Assays:
biotinyl-Val-oxazolone = test: self-aminoacylation, catalytic enhancement (BVO) (fold over background); higher = more active; k-Seq, kA / k0A0; sequences stand for … in GGGAAUGGAUCCACAUCUACGAAUUC…UUCACUGCAGACUUGACGAAGCUG
Procedure, shortened: (§1)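 Catalytic enhancement equals the median kA over the uncatalyzed rate, the latter read from the low-activity peak of a bimodal Gaussian fit. Values of kA came from fitting each sequence's fraction reacted to a pseudo-first-order model, with 1000 bootstraps. Reacted RNA was captured with streptavidin and quantified by triplicate qPCR and Illumina sequencing after 90 minutes at room temperature with 2–1250 μM biotinyl-aminoacyl-oxazolone and 0.43 μM mutagenized RNA pools bearing a 21-nt variable region.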

biotinyl-Phe-oxazolone = test: self-aminoacylation, catalytic enhancement (BFO) (fold over background); higher = more active; k-Seq, kA / k0A0; sequences stand for … in GGGAAUGGAUCCACAUCUACGAAUUC…UUCACUGCAGACUUGACGAAGCUG
Procedure, shortened: as §1

biotinyl-Leu-oxazolone = test: self-aminoacylation, catalytic enhancement (BLO) (fold over background); higher = more active; k-Seq, kA / k0A0; sequences stand for … in GGGAAUGGAUCCACAUCUACGAAUUC…UUCACUGCAGACUUGACGAAGCUG
Procedure, shortened: as §1

biotinyl-Trp-oxazolone = test: self-aminoacylation, catalytic enhancement (BWO) (fold over background); higher = more active; k-Seq, kA / k0A0; sequences stand for … in GGGAAUGGAUCCACAUCUACGAAUUC…UUCACUGCAGACUUGACGAAGCUG
Procedure, shortened: as §1

biotinyl-Ile-oxazolone = test: self-aminoacylation, catalytic enhancement (BIO) (fold over background); higher = more active; k-Seq, kA / k0A0; sequences stand for … in GGGAAUGGAUCCACAUCUACGAAUUC…UUCACUGCAGACUUGACGAAGCUG
Procedure, shortened: as §1

biotinyl-Met-oxazolone = test: self-aminoacylation, catalytic enhancement (BMO) (fold over background); higher = more active; k-Seq, kA / k0A0; sequences stand for … in GGGAAUGGAUCCACAUCUACGAAUUC…UUCACUGCAGACUUGACGAAGCUG
Procedure, shortened: as §1

Sequence	self-aminoacylation (biotinyl-Val-oxazolone)	self-aminoacylation (biotinyl-Phe-oxazolone)	self-aminoacylation (biotinyl-Leu-oxazolone)	self-aminoacylation (biotinyl-Trp-oxazolone)	self-aminoacylation (biotinyl-Ile-oxazolone)	self-aminoacylation (biotinyl-Met-oxazolone)
AAGGUGGCUAAUAGUCGCAAG [Fam3.1 aminoacylation ribozyme variant]	1.41	1.82	1.74	1.95	1.63	1.65
AAGGUUGCUAAUAGACGCAAG [Fam3.1 aminoacylation ribozyme variant]	0.682	1.15	0.598	0.85	0.653	0.807
AAGUAUGCUAAAAGUCGCAAG [Fam3.1 aminoacylation ribozyme variant]	1.4	8.97	1.87	3.97	1.86	1.39
AAGUAUGCUAAUUGUCGCAAG [Fam3.1 aminoacylation ribozyme variant]	1.34	1.8	1.29	1.37	1.48	1.53
AAGUAUGCUACUAGUCGCAAG [Fam3.1 aminoacylation ribozyme variant]	1.16	1.86	1.29	1.66	1.6	1.04
AAGUAUGGUAAUAGUCGCAAG [Fam3.1 aminoacylation ribozyme variant]	1.33	1.46	1.69	1.46	1.61	1.54
AAGUCUGCUAAUUGUCGCAAG [Fam3.1 aminoacylation ribozyme variant]	1.06	1.84	0.931	1.74	1.06	1.69
AAGUGAGCUAAUAGUCGCAAG [Fam3.1 aminoacylation ribozyme variant]	1.26	1.57	1.13	1.7	1.67	1.3
AAGUGUGCAAAUAGUCGCAAG [Fam3.1 aminoacylation ribozyme variant]	1.07	1.08	0.923	1.03	1.18	1.13
AAGUGUGCUAAUACUCGCAAG [Fam3.1 aminoacylation ribozyme variant]	0.842	0.767	0.658	0.97	0.959	0.806
AAGUUAGCUAAUAGUAGCAAG [Fam3.1 aminoacylation ribozyme variant]	1.07	1.62	1.02	1.33	1.43	1.09
AAGUUAGCUAAUAGUCGCAAC [Fam3.1 aminoacylation ribozyme variant]	1.29	1.82	1.01	1.62	1.38	1.05
AAGUUCGCUAAGAGUCGCAAG [Fam3.1 aminoacylation ribozyme variant]	1.71	1.58	1.56	1.73	1.24	1.19
AAGUUCGCUAAUAGUGGCAAG [Fam3.1 aminoacylation ribozyme variant]	0.56	0.484	0.8	0.444	0.737	0.601
AAGUUCGUUAAUAGUCGCAAG [Fam3.1 aminoacylation ribozyme variant]	1.53	3.09	1.94	1.56	1.93	1.77
AAGUUGCCUAAUAGUCGCAAG [Fam3.1 aminoacylation ribozyme variant]	1.47	1.57	1.36	1.22	1.52	1.86
AAGUUGGCUAAUAGACGCAAG [Fam3.1 aminoacylation ribozyme variant]	0.685	1	0.602	0.915	0.777	0.473
AAGUUGGCUAAUAGUCGCACG [Fam3.1 aminoacylation ribozyme variant]	1.63	2.62	1.81	2.11	1.35	1.61
AAGUUGGGUAAUAGUCGCAAG [Fam3.1 aminoacylation ribozyme variant]	1.26	1.96	1.16	1.83	1.33	1.39
AAGUUUACUAAUAGUCACAAG [Fam3.1 aminoacylation ribozyme variant]	1.44	2.55	1.33	1.39	1.74	1.33
AAGUUUCCUAAUAGUCGCAAC [Fam3.1 aminoacylation ribozyme variant]	1.31	2.42	1.5	2.18	1.59	1.73
AAGUUUGAUAAUAGUCGCAAG [Fam3.1 aminoacylation ribozyme variant]	0.952	1.75	0.915	1.03	1.04	0.929
AAGUUUGAUAAUAGUCGCAUG [Fam3.1 aminoacylation ribozyme variant]	0.774	1.19	0.836	0.69	0.996	0.778
AAGUUUGAUAAUAGUCGCUAG [Fam3.1 aminoacylation ribozyme variant]	0.529	0.654	0.464	0.625	0.553	0.477
AAGUUUGAUAAUUGUCGCAAG [Fam3.1 aminoacylation ribozyme variant]	1.13	1.5	1.27	0.973	1.35	1.14
AAGUUUGCAAAUAAUCGCAAG [Fam3.1 aminoacylation ribozyme variant]	0.655	0.61	0.686	0.429	0.778	0.739

Sequence	self-aminoacylation (biotinyl-Val-oxazolone)	self-aminoacylation (biotinyl-Phe-oxazolone)	self-aminoacylation (biotinyl-Leu-oxazolone)	self-aminoacylation (biotinyl-Trp-oxazolone)	self-aminoacylation (biotinyl-Ile-oxazolone)	self-aminoacylation (biotinyl-Met-oxazolone)
AAGUUUGCAAAUAGUGGCAAG [Fam3.1 aminoacylation ribozyme variant]	0.624	1.2	0.964	0.861	0.944	0.825
AAGUUUGCAAAUAGUUGCAAG [Fam3.1 aminoacylation ribozyme variant]	0.982	0.979	1.12	0.634	1.17	0.926
AAGUUUGCAAAUGGUCGCAAG [Fam3.1 aminoacylation ribozyme variant]	0.863	1.75	0.823	0.969	0.697	0.747
AAGUUUGCCAAUAGUCGCGAG [Fam3.1 aminoacylation ribozyme variant]	2.09	11.6	2.25	3.77	1.61	1.96
AAGUUUGCCAAUAGUCUCAAG [Fam3.1 aminoacylation ribozyme variant]	0.906	1.32	0.926	1.17	0.98	1.25
AAGUUUGCCAAUCGUCGCAAG [Fam3.1 aminoacylation ribozyme variant]	1.29	0.9	1.26	1.12	1.36	1.7
AAGUUUGCCCAUAGUCGCAAG [Fam3.1 aminoacylation ribozyme variant]	0.947	0.937	0.863	1.15	0.928	0.864
AAGUUUGCGAAUAGUAGCAAG [Fam3.1 aminoacylation ribozyme variant]	0.849	0.534	0.832	0.739	1.08	0.774
AAGUUUGCUAAAAUUCGCAAG [Fam3.1 aminoacylation ribozyme variant]	1.25	1.17	1.21	1.42	1.55	1.05
AAGUUUGCUAACAGUAGCAAG [Fam3.1 aminoacylation ribozyme variant]	0.699	1.05	0.782	0.858	0.886	0.717
AAGUUUGCUAACAGUCCCAAG [Fam3.1 aminoacylation ribozyme variant]	0.81	1.94	0.801	1.85	1.13	1.06
AAGUUUGCUAACAGUUGCAAG [Fam3.1 aminoacylation ribozyme variant]	0.642	1.24	0.84	0.988	0.733	0.943
AAGUUUGCUAACGGUCGCAAG [Fam3.1 aminoacylation ribozyme variant]	0.645	1.35	0.626	0.658	0.768	1.1
AAGUUUGCUAAGCGUCGCAAG [Fam3.1 aminoacylation ribozyme variant]	0.913	1.03	0.76	1.02	0.902	0.744
AAGUUUGCUAAUAAACGCAAG [Fam3.1 aminoacylation ribozyme variant]	0.667	1.12	0.687	0.97	0.774	0.833
AAGUUUGCUAAUAAUCGCACG [Fam3.1 aminoacylation ribozyme variant]	0.725	0.641	0.47	0.627	0.695	0.615
AAGUUUGCUAAUACUCCCAAG [Fam3.1 aminoacylation ribozyme variant]	0.484	0.694	0.317	0.294	0.449	0.444
AAGUUUGCUAAUACUCGCAAC [Fam3.1 aminoacylation ribozyme variant]	0.962	1.11	0.635	0.906	0.86	0.865
AAGUUUGCUAAUAGCCGCAAA [Fam3.1 aminoacylation ribozyme variant]	1.58	1.38	1.38	1.3	1.92	1.86
AAGUUUGCUAAUAGCCGCUAG [Fam3.1 aminoacylation ribozyme variant]	0.933	0.731	0.961	1.15	0.994	1.05
AAGUUUGCUAAUAGCCGUAAG [Fam3.1 aminoacylation ribozyme variant]	1.36	18.2	0.898	7.16	1.3	1.39
AAGUUUGCUAAUAGGCUCAAG [Fam3.1 aminoacylation ribozyme variant]	0.774	0.973	0.715	0.535	0.664	0.493
AAGUUUGCUAAUAGUCACAAG [Fam3.1 aminoacylation ribozyme variant]	1.35	12.3	1.21	4.08	1.47	1.45
AAGUUUGCUAAUAGUCACACG [Fam3.1 aminoacylation ribozyme variant]	0.886	1.63	0.991	1.72	1.04	0.886
AAGUUUGCUAAUAGUCGACAG [Fam3.1 aminoacylation ribozyme variant]	0.693	1.23	0.675	0.91	0.872	0.579
